Source: ChEMBL document CHEMBL3988442, “University of Dundee, Small-Polar-MMV Screening Library” (2021).

Chains of the proteins cited; added tags and fusions are not shown. Residues count along the entry.
UniProt I6X8D2, whole entry: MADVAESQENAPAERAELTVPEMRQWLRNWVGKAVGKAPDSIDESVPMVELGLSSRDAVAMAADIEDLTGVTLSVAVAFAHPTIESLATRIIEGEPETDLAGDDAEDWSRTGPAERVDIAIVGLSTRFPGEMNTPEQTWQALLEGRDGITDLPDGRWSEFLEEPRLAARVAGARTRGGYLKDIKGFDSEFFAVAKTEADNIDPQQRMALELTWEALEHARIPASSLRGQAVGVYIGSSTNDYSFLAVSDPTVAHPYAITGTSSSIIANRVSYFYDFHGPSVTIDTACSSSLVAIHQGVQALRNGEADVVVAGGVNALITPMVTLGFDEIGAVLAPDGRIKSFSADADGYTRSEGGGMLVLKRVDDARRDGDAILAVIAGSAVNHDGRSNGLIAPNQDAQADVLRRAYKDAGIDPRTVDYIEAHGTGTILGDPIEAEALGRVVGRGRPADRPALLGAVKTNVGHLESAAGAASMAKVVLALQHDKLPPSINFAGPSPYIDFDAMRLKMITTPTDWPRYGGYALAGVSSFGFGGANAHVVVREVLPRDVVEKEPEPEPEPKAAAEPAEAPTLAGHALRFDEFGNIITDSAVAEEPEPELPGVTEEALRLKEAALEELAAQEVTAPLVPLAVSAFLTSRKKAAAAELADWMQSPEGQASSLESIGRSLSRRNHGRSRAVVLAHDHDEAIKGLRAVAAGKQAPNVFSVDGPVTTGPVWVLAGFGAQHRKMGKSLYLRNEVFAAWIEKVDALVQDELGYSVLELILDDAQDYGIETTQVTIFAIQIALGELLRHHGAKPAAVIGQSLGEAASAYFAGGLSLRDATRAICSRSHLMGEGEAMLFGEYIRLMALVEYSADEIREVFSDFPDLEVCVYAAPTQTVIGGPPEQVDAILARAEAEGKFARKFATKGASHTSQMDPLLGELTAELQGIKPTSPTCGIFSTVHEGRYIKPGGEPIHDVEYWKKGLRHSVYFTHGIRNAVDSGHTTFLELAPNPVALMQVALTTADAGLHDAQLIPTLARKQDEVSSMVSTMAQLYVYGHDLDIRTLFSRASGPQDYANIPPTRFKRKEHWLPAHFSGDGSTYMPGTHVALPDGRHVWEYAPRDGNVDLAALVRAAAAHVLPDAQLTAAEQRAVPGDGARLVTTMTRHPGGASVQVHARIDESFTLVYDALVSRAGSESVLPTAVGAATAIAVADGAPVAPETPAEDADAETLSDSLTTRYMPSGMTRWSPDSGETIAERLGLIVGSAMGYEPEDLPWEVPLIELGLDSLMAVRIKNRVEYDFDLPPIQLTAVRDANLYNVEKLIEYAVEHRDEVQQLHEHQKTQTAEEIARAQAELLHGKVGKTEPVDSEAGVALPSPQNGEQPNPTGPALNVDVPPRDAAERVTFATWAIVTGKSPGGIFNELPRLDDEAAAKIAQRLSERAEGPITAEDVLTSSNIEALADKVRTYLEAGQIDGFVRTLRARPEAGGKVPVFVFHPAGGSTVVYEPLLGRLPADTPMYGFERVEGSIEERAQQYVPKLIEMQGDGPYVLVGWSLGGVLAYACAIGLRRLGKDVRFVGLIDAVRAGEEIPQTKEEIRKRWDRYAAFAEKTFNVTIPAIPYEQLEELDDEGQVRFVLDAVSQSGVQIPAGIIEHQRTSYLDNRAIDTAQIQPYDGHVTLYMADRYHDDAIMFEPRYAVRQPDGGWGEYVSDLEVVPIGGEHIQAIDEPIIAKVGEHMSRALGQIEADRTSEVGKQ
UniProt A4I591, 1-473: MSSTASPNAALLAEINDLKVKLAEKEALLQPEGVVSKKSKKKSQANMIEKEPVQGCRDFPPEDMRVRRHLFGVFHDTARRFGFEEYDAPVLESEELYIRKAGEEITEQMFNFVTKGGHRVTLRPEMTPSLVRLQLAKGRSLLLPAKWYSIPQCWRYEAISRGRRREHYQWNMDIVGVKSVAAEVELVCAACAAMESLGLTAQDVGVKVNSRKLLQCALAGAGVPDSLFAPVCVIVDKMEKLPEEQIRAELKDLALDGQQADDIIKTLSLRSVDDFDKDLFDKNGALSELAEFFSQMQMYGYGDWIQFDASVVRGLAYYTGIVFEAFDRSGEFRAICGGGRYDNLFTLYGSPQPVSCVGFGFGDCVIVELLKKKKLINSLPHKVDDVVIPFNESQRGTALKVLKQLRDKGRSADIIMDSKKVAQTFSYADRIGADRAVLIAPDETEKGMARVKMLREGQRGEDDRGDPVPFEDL

A: 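Enzyme assay of the thioesterase domain of polyketide synthase 13; the read-out is not stated. Target: Polyketide synthase Pks13, Mycobacterium tuberculosis (UniProt I6X8D2). Concentration: 30 µM. The record gives no direction; the compounds picked for IC50 retests had high values, so higher reads as stronger inhibition. About 67,000 compounds were tested under these conditions; 0.46% (about 300) showed 50% or more at least once.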
B: 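Enzyme assay of histidyl-tRNA synthetase; the read-out is not stated. Target: Histidine-tRNA ligase, Leishmania infantum (UniProt A4I591). Compounds at 30 µM. Higher reads as stronger inhibition (inferred: compounds with an IC50 in retests scored well above the rest). The assay is labelled LdHisRS but filed under L. infantum. Of about 69,000 compounds tested this way, about 410 (0.6%) reached 50% or more in at least one test.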

The filed quantity is “Percent Effect” (%).
The controls that fix the scale are not given in the record; negative values are as filed.
The compounds are a random part of those screened.
A dash means the value is not listed here; it may have been measured.

compound	A	B
COCCN(C)C(=O)c1nc2c(s1)CCCN2c1ncccn1	-26.06%	17.54%
O=c1cc(N2CCCC2)cnn1Cc1noc(C2CCCO2)n1 (centres unmarked)	4.093%	8.889%
CC(c1nncn1C)n1cc(-c2cc(CN3CCCC3)cs2)nn1 (centres unmarked)	3.678%	41.33%
Cc1cnn(C2CN(Cc3nc(-c4ccsc4)no3)C2)c1	-2.656%	13.91%
O=C(CCN1CCCCO1)N1CCC(CO)(Cc2ccccc2)CC1	-12.49%	9.89%
COc1ccc(CN2C[C@@H]3CN(Cc4ccncc4)C[C@@H]3C2=O)cc1	-28.39%	13.59%
Cc1cc(C)n(C2CCCN(C(=O)CN(C)c3cnccn3)C2)n1 (centres unmarked)	-15%	9.677%
CN(Cc1ncnn1C)C1CCN(c2sccc2C#N)C1=O (centres unmarked)	-17.27%	10.99%
CC(C)(C)c1n[nH]c(C2CN(C(=O)C3=COCCC3)CCO2)n1 (centres unmarked)	-10.15%	0.8772%
N#CC1CCCN(c2ncnc3c2CCN(Cc2ccccc2)CC3)C1 (centres unmarked)	-6.147%	14.29%
CCc1nc(CN(C)C(=O)c2cc(NC(C)=O)ccc2Cl)no1	-7.783%	8.333%
CCn1cc(NC(=O)NCC(c2cccs2)N(C)C)cn1 (centres unmarked)	-2.012%	13.6%
COCc1c(C(=O)N2CCCC(C(=O)c3ccccc3)C2)noc1C (centres unmarked)	-	16.24%
Cc1cc(C)n(C2CCCN(C(=O)Cc3cn4ccsc4n3)C2)n1 (centres unmarked)	-15.06%	12.04%
COCCOc1ccc(NC(=O)N(CCO)C2CC2)cn1	-6.602%	15.87%
CCCc1nnc(N(C)CC2CCN(CC(C)C)C2)o1 (centres unmarked)	-20.42%	18.31%
Cc1nn(C)c(N(C)C)c1CNC1CCc2cc(F)ccc21 (centres unmarked)	-11.24%	22.22%
CN1CCN(C(=O)c2cc3sccc3n2Cc2ccccc2F)CC1	10.83%	9.89%
CSc1ncccc1C(=O)N1C[C@H]2CC[C@@H]1CN(c1ncccn1)C2	-11.8%	19.81%
CSc1ccccc1CN1C[C@H]2C(=O)N(CC3CC3)C[C@@]2(C(=O)O)C1	-22.98%	15.15%
COCc1noc(-c2ccc(N(C)Cc3cn(C)nc3C)nc2)n1	14.92%	10.4%
CCn1nc(C)c(CN(CCCN(C)C)Cc2ccccn2)c1C	-13.45%	12.86%
NC(=O)C1(c2cnccn2)CCCN1Cc1ccc(F)c(F)c1 (centres unmarked)	-13.58%	19.79%
CCN(CC)C[C@H]1CN2CC[C@H]1C[C@@H]2CNC(=O)c1ccco1	-8.422%	14.86%
CC1=N[C@@]2(CC[C@@H]3CN(CC(=O)N(C)C)C[C@@H]32)C(=O)N1CC(C)C	-5.027%	-3.883%
Cc1cc(CN2CCN(CC3CC3)[C@@H]3CS(=O)(=O)C[C@@H]32)ccc1F	-14.19%	5.208%
CSCc1noc(CN2CCC3(CC2)CC(=O)N(CC=C(C)C)C3)n1	-17.99%	20.43%
COCc1cccc(NCc2cccnc2)c1	-2.578%	6.667%
Cc1nc(CN(C)C2CCN(CCc3ccc4c(c3)CCO4)C2)no1 (centres unmarked)	-17.34%	18.58%
O=C(c1cnccn1)N1C[C@@H]2CC[C@H](C1)N(S(=O)(=O)c1cccnc1)C2	56.12%	14.46%
Cc1cc(S(=O)(=O)Nc2onc(C)c2C)sc1C	-4.828%	8.065%
CCNC(=O)NC(c1ccc(C)cc1)c1cccc(S(C)(=O)=O)c1 (centres unmarked)	3.532%	11.9%
COCC1CN(C(=O)Cc2cccc(F)c2)Cc2ccnn2C1 (centres unmarked)	-16.5%	29.41%
CC(C)C1CN(C(=O)c2ccccc2)CCS1 (centres unmarked)	-27.79%	11.83%
Cc1noc(C)c1CN1CCn2nc(CCC(=O)N3CCCC3)cc2C1	-10.43%	12.94%
CC(C)(C)c1nc(C(C)(C)NC(=O)C2CC(=O)N(CC3CC3)C2)no1 (centres unmarked)	0.01591%	18.18%
COCC(=O)N1CCC2(C1)c1ccccc1S(=O)(=O)N2C (centres unmarked)	14.78%	3.774%
CC(C)CN1CC(C(=O)NCCc2ccc(OC(F)F)cc2)CC1=O (centres unmarked)	-27.19%	13.16%
O=C(NC1CCC1)[C@@H]1CCO[C@@H]2CCN(CCc3ccccc3)C[C@H]21	-18.53%	15.38%
Cc1cn2c(n1)CCC(NC(=O)c1cnc(C)nc1C(C)C)C2 (centres unmarked)	-17.87%	13.33%

Repeated from the top, 5 entries:

| compound | A | B |
|---|---|---|
| `COCCN(C)C(=O)c1nc2c(s1)CCCN2c1ncccn1` | -26.06% | 17.54% |
| `O=c1cc(N2CCCC2)cnn1Cc1noc(C2CCCO2)n1` (centres unmarked) | 4.093% | 8.889% |
| `CC(c1nncn1C)n1cc(-c2cc(CN3CCCC3)cs2)nn1` (centres unmarked) | 3.678% | 41.33% |
| `Cc1cnn(C2CN(Cc3nc(-c4ccsc4)no3)C2)c1` | -2.656% | 13.91% |
| `O=C(CCN1CCCCO1)N1CCC(CO)(Cc2ccccc2)CC1` | -12.49% | 9.89% |